## Library screening results

The chains behind the UniProt entries cited, without tags or fusion partners.
UniProt E9BF75, entry or part of it: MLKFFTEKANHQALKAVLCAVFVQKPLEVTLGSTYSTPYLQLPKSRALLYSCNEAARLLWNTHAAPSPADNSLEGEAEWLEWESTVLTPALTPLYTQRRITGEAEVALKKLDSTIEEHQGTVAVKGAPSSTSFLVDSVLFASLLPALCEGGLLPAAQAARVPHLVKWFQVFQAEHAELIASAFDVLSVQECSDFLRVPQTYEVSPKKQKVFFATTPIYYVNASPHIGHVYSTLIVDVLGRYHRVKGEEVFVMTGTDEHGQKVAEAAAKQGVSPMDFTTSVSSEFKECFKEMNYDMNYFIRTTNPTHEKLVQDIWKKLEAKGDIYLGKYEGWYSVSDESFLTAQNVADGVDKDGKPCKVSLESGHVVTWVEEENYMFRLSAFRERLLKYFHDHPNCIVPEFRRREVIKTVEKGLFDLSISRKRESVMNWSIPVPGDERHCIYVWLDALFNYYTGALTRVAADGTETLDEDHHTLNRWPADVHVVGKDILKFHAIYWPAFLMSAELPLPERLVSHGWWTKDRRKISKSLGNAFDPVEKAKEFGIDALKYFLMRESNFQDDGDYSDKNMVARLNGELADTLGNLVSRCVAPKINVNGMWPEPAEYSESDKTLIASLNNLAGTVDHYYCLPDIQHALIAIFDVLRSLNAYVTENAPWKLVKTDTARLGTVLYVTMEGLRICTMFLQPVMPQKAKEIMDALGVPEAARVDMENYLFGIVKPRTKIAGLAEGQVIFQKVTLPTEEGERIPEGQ

Measurements from “University of Dundee, Small-Polar-MMV Screening Library” (2021), ChEMBL document CHEMBL3988442.

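Primary screen of methionyl-tRNA synthetase; the read-out is not stated. Target: Methionyl-tRNA synthetase (putative), Leishmania donovani (UniProt E9BF75). The test concentration is not given. The values are filed as inhibition. Size under these conditions: about 68,000 compounds, about 24 of them at 50% or above in at least one test.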

Results are percentages, as filed.
The controls that fix the scale are not given in the record; negative values are as filed.
The compounds are a random part of those screened.

structure	Inhibition
Cc1cc(CC(=O)N2CCN(CC3CC3)[C@@H]3CS(=O)(=O)C[C@@H]32)ccc1F	19.47
CC1CCN(CCNC(=O)c2ccn(-c3ccc(F)cc3)n2)CC1	17.48
CSCCC(C)(O)CNS(=O)(=O)Cc1ccc(F)cc1 (centres unmarked)	13.24
Cc1cc(C)c(CNC(=O)NCC2COc3ccccc3C2)c(=O)[nH]1 (centres unmarked)	12.1
Cc1cc(C)n(C2CCCN(C(=O)c3ccc(N(C)C)nc3)C2)n1 (centres unmarked)	12.57
CSc1ccc(-c2cc(CN)nc3ccnn23)cc1	12.86
CCn1ncc2c1CCCC2NCc1cccc2c1OCO2 (centres unmarked)	8.309
CSc1ccc(C2CC(=O)Nc3c2c(=O)[nH]c2ncnn32)cc1 (centres unmarked)	4.969
CC(O)(CNC(=O)NCCc1ccc2c(c1)CCO2)c1ccsc1 (centres unmarked)	6.266
Cc1noc(COCC(=O)Nc2cc(C)c(Br)cn2)n1	12.01
Cc1cccc(C(C(=O)N(C)Cc2ccco2)N(C)C)c1 (centres unmarked)	2.235
Cc1sc(C(=O)O)cc1S(=O)(=O)Nc1c(F)cccc1-n1cccn1	4.244
COc1ccccc1NC(=O)NCc1cn[nH]c1	7.102
CS(=O)(=O)c1ccc(NCc2ccc(F)cc2)cn1	20.05
CCC(=O)N1CCC2(CC1)C(=O)N(C)CCN2Cc1csc(C)n1	10.99
Cc1cc(C)cc(CCC(=O)N(C)CCc2cn[nH]c2)c1	6.625
CN1CCC(Oc2ccc(-n3ccnc3-c3nccn3C)cc2)CC1	17.49
COc1ccccc1C(C)CNC(=O)c1c(C)nn(C)c1OC (centres unmarked)	3.896
COCCN1CC2(CCC1=O)CCN(Cc1nnc(C)o1)CC2	15.47
O=c1c2sccc2ncn1CC(O)CN1CCOCC1 (centres unmarked)	8.844
Cc1nnc(N2C[C@@H]3CCCO[C@@H]3[C@H](N3CCCC3=O)C2)s1	9.783
O=C(C[C@@H]1COC[C@H]2CN(CC3CCOCC3)C[C@@H]12)N1CCCCO1	11.68
CN(C)S(=O)(=O)N1CCN(Cc2ccnc(N3CCCC3)n2)CC1	11.98
Cn1cc(CN2CCCN(C(=O)c3cc(Cl)cn3C)CC2)cn1	4.082
CC(=O)c1cc(CN2CCCCC2c2nc3cc(F)ccc3[nH]2)cs1 (centres unmarked)	12.85
Cn1ccnc1CN1CCC2(CC(=O)N(c3ccsc3)C2)C1 (centres unmarked)	7.692
Cn1cc(NC(=O)Nc2ccc3c(c2)OCO3)cn1	14.37
c1ccc(Cc2nc(C3CC3)nn2-c2ccc3c(c2)OCCO3)nc1	-0.6803
CCCc1cc(=O)[nH]c2nnc(SCC(C)=O)n12	9.441
CN(C)CCCN(C)c1nccc(N2CCN[C@H]3CS(=O)(=O)C[C@H]32)n1	14.93
CS(=O)(=O)CCN1CCC(Nc2c(Cl)cccc2C#N)CC1	21.56
COc1ccccc1C1(CNc2snc(Cl)c2C#N)CCCC1	14.8
COc1cccc(C2CN(CCc3ccncc3)CCO2)c1 (centres unmarked)	14.52
O=C(NCCc1ccncc1)c1cccc(S(=O)(=O)NC2CCOC2)c1 (centres unmarked)	10
Fc1cccc(N2CCc3ncnc(C4CC4)c3CC2)c1	-3.759
CCCc1noc(C(C)N2CC(n3cccn3)C2)n1 (centres unmarked)	3.621
CCn1ncnc1C1CC(=O)NCc2nc3ccccn3c21 (centres unmarked)	10.37
Cc1cccnc1CNCC1(O)CCCN(CC2CCCCC2)C1=O (centres unmarked)	19.26
CO[C@H]1CCN(C(=O)c2cc(C)on2)C[C@@H]1Cc1ccccc1	5.602
N#CCCN(C(=O)CN1CCCC1c1cccs1)c1ccccc1F (centres unmarked)	21.9
Cc1nc(-c2cccc(N3CCC(NC4CCSC4)CC3)c2)cs1 (centres unmarked)	18.21
Cc1cc(C(F)(F)F)cc(N2CCN(Cc3ccccc3)CC(O)C2)n1 (centres unmarked)	13.19
CC(C)N(Cc1cccnc1)C(=O)CCSc1ccc(C#N)cc1	3.693
COCC1(NC(=O)C(c2ccc(F)cc2)N(C)C)CCCC1 (centres unmarked)	-0.7692
COc1ccc(CNC(=O)NCc2cc(C)oc2C)cc1	12.32
Cc1cc(Br)cnc1NCCN1CCC(N(C)C)CC1	2.821
O=c1[nH]nc2c(S(=O)(=O)N3CCOCC3)cccn12	19.78
CCc1nn2c(=N)c(C#N)n[nH]c2c1-c1ccc(OC)cc1	18.59
O=C(c1cccnc1)N1CC[C@H](OCC2CC2)[C@@H]1Cc1cccnc1	15.48
Cc1nc2n(n1)CC(NCc1nnc(C(C)(C)C)o1)CC2 (centres unmarked)	11.94
COCc1cc(O)nc(C2CCCN(Cc3ccc(OC)cc3)C2)n1 (centres unmarked)	11.53
O=C1[C@H]2CN(Cc3cccs3)C[C@H]2CN1c1cncnc1	7.087
O=C1NCCCCC1NC(=O)C1(c2ccc3c(c2)OCCO3)CCCC1 (centres unmarked)	2.128
Cc1cc(NC(=O)NCC2CCN(C(C)C)C2)no1 (centres unmarked)	18.79
CC1(C)COCCN1C(=O)CCc1nc(-c2ccncc2)no1	1.099
Cc1nc(COc2nc(C(C)C)no2)cs1	17.04
CN1CCCC(c2cccc(CCC(=O)NCc3ccccn3)n2)C1 (centres unmarked)	8.333
c1ccc(-n2cc(CNCC3CCCN3c3cccnn3)cn2)cc1 (centres unmarked)	21.71
CC(=O)NC[C@@H]1C=C(C)[C@H](CC(=O)NCCN(C)C)C[C@H]1C(C)C	1.099
CC(C)Nc1nc(O)cc(C2CC(=O)N(Cc3ccccn3)C2)n1 (centres unmarked)	20.65
CC(C)NS(=O)(=O)c1cc(C(=O)O)cc(-c2ccccc2C#N)c1	1.423
CCc1noc(C)c1C(=O)N1CCCC1Cn1cc(C)cn1 (centres unmarked)	7.087
CC(CNS(=O)(=O)c1cccc(Cl)c1)N1CCN(C)CC1 (centres unmarked)	8.696
CCN(CC)C(=O)CS(=O)(=O)c1cc(OC)c(OC)cc1C	9.214
CCc1cc(NCCCOC2CCN(C)CC2)ncn1	8.517
CC(C)n1cnnc1CN(C)C(=O)C1CCCN(CC(N)=O)C1 (centres unmarked)	15.89

Once more, the final 7:

structure,Inhibition
CC(C)Nc1nc(O)cc(C2CC(=O)N(Cc3ccccn3)C2)n1 (centres unmarked),20.65
CC(C)NS(=O)(=O)c1cc(C(=O)O)cc(-c2ccccc2C#N)c1,1.423
CCc1noc(C)c1C(=O)N1CCCC1Cn1cc(C)cn1 (centres unmarked),7.087
CC(CNS(=O)(=O)c1cccc(Cl)c1)N1CCN(C)CC1 (centres unmarked),8.696
CCN(CC)C(=O)CS(=O)(=O)c1cc(OC)c(OC)cc1C,9.214
CCc1cc(NCCCOC2CCN(C)CC2)ncn1,8.517
CC(C)n1cnnc1CN(C)C(=O)C1CCCN(CC(N)=O)C1 (centres unmarked),15.89